Laboratory results taken from PMC10005955.
No constants are given. Whether binding was seen depends on the method and setting. In cells and extracts the contact can be indirect. Some entries that bind do so weakly or less than the wild type.

Sequences of proteins named here, by UniProt entry; tags and fusion partners are left off.
UniProt Q9UHY1: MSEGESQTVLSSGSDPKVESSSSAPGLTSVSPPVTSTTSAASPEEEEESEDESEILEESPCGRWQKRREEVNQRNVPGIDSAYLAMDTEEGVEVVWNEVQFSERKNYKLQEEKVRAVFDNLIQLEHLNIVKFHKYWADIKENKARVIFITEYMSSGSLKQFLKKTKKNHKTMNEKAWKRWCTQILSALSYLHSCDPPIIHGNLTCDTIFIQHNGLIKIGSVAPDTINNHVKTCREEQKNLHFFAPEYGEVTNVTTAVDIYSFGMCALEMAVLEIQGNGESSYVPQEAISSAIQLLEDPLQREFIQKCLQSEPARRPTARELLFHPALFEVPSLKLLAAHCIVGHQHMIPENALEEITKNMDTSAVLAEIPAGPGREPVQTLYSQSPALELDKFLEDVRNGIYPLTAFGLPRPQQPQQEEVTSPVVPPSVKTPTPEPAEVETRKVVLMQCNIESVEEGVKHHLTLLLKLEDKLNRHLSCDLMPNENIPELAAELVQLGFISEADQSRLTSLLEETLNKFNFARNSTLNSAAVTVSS
UniProt Q8TCU6: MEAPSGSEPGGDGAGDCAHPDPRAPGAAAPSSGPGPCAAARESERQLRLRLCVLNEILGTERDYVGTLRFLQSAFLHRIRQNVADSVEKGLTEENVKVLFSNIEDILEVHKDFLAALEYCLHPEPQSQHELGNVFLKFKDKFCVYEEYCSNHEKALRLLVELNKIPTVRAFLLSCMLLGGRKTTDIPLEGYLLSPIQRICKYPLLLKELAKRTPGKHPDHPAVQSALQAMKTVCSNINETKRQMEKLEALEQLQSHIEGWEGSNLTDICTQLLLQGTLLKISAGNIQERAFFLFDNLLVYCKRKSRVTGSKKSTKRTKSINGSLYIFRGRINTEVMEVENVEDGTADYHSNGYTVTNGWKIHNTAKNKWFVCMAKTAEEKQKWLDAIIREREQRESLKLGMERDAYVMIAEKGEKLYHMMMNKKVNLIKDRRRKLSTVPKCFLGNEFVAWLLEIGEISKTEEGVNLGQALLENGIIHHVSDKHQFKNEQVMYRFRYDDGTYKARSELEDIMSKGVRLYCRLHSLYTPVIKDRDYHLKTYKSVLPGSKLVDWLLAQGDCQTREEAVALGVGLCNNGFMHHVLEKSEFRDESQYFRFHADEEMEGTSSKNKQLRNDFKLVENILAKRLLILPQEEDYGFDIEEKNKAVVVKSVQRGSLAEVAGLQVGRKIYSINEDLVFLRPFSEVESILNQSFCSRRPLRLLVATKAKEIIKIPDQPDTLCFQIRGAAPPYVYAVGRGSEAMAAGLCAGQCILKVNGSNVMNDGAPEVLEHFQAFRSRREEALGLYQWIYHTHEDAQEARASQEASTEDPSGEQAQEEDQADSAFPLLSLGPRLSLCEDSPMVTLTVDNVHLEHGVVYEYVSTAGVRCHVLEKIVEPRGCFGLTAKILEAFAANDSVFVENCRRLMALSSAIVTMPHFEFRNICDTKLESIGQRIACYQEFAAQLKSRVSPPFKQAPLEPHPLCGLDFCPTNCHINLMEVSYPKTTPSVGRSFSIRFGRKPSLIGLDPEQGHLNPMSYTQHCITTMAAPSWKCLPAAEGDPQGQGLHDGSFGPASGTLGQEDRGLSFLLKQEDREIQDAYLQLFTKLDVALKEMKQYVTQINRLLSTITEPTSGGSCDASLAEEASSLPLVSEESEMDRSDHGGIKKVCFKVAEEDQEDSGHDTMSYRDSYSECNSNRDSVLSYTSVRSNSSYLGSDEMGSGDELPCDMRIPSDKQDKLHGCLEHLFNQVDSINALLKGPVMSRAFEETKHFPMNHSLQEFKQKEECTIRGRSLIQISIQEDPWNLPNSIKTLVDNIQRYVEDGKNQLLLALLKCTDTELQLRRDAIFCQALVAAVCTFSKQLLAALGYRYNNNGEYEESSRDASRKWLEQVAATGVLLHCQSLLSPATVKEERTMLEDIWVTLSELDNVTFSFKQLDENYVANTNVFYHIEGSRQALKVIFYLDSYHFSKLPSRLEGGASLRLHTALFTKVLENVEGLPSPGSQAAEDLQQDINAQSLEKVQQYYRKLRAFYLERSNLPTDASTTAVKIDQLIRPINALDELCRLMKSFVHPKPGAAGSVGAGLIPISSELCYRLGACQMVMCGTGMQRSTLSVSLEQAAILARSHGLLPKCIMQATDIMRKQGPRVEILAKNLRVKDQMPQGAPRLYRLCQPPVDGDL
UniProt P60953: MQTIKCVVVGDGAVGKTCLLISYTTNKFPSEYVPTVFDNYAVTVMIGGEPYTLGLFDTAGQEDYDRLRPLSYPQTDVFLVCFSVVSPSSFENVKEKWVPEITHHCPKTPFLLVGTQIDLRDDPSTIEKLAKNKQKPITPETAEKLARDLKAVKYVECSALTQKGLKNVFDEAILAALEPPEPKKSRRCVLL

Molecular target: Flag-tagged NRBP1 (UniProt Q9UHY1)
Assay: co-IP; Flag-tagged NRBP1 transfected into MFM-223 cells; lysate in normal lysis buffer; anti-FLAG M2 affinity-agarose beads at 4 °C for 2-4 h; Western blotting for endogenous proteins

Row | binding | Substance
1 | binds | P-Rex1 (from UniProt Q8TCU6 1-1659)
2 | binds | Cdc42 (from UniProt P60953 1-191)
